Assay results from patent US20220259283A1 (AARHUS UNIVERSITET, published 2022).
No constants are given. Whether binding was seen depends on the method and setting. For part of these data: Binding seen in cells or lysates may run through a third protein. Some binding calls cover weakened binding; strength is not graded here.

Amino acid sequences for entries named in this document (tags omitted). A change or cut given only in a name is not applied to a line headed by its entry. Chains listed by the source or under a name are the forms on record and can include a tag or linker.
hPGRN-6his (human progranulin with a C-terminal 6his-tag) (P28799, form named): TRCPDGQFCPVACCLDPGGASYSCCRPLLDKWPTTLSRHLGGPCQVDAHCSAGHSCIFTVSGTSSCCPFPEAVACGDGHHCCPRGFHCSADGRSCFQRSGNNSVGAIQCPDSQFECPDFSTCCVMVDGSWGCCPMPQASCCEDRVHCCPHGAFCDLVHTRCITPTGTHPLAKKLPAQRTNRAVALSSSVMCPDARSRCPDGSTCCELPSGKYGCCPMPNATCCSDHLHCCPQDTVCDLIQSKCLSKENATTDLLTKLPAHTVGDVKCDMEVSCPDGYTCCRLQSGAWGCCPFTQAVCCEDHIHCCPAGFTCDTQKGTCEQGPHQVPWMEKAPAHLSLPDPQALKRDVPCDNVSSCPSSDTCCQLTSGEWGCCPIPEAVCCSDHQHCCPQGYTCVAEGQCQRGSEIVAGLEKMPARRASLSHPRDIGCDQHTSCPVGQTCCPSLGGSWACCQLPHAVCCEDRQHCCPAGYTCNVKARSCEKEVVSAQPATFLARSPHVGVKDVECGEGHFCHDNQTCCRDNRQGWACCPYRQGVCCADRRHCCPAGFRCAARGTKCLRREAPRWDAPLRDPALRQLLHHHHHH
UniProt Q96PQ0: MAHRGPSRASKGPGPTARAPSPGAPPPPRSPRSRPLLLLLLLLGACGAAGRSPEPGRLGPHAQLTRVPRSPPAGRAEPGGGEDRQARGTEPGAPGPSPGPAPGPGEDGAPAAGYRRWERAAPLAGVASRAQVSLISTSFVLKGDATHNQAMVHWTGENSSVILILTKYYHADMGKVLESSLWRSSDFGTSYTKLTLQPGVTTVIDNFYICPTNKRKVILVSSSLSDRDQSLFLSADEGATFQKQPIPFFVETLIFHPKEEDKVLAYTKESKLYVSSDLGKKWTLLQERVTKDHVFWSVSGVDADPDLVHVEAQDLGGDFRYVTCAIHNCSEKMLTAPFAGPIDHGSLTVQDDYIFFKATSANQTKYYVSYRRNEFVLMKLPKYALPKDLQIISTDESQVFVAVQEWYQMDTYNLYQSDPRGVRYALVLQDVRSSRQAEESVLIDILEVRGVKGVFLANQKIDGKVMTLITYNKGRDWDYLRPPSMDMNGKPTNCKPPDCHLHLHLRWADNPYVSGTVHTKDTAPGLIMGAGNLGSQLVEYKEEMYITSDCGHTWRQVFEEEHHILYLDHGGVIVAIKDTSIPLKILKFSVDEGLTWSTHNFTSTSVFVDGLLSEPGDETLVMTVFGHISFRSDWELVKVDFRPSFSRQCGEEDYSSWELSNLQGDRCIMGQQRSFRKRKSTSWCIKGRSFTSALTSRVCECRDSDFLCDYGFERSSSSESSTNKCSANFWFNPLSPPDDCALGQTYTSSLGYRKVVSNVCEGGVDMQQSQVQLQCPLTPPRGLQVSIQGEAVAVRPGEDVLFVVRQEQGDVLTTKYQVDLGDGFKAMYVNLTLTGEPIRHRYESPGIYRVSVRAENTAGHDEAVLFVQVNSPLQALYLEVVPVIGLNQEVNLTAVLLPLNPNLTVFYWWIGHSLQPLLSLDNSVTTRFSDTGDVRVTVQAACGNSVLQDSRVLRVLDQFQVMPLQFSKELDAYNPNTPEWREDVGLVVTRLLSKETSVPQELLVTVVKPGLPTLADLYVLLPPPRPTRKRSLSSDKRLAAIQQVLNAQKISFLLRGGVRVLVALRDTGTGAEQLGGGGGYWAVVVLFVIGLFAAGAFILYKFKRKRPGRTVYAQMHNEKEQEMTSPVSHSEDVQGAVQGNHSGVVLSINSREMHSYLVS

Key:
[1] = biological target: T1, hamster progranulin (expressed by the CHO-K1 cells) (hamster) (UniProt G3HLK3); assay: co-purification on Talon beads from CHO-K1 medium, SDS-PAGE band identified by MALDI MS/MS
T1 sequence: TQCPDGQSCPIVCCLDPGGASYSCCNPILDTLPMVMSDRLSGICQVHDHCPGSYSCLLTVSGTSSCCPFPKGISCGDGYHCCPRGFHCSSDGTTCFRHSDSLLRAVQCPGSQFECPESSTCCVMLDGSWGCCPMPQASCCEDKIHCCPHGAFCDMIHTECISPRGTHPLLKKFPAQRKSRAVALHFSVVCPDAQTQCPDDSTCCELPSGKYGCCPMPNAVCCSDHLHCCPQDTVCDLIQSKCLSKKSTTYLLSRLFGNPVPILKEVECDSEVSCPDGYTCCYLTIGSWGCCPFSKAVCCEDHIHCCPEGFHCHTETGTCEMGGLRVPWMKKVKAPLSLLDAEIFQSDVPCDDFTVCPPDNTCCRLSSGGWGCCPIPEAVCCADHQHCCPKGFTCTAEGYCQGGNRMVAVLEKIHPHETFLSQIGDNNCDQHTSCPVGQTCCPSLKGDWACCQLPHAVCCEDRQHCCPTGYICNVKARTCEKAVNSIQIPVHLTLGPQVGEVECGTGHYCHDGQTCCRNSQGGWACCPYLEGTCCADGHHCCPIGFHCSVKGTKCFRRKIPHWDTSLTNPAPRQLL

[2] = biological target: T1, hamster progranulin (expressed by the CHO-K1 cells) (hamster); assay: co-purification, MALDI MS/MS
[3] = biological target: hPGRN-6his (human progranulin with a C-terminal 6his-tag) (human) (UniProt P28799); assay: SPR and MST

binding [1]: binds | binding [2]: binds | binding [3]: binds
Substance: hSorCS2-6his (extracellular domain of human SorCS2 with a C-terminal 6His-tag) (from UniProt Q96PQ0 51-1076) (receptor)
